Measurements published in paper PMC6232469.
Like-named read-outs stand apart in the source and are kept apart here. These are yes or no findings as the source states them, for the method shown. Binding seen in cells or lysates may run through a third protein. Some binding calls cover weakened binding; strength is not graded here. For some assays here: Sequences can lack the tags named with a protein.

By UniProt entry, the sequences of proteins in these tests, tags left out. Residues count along the entry.
UniProt P03466: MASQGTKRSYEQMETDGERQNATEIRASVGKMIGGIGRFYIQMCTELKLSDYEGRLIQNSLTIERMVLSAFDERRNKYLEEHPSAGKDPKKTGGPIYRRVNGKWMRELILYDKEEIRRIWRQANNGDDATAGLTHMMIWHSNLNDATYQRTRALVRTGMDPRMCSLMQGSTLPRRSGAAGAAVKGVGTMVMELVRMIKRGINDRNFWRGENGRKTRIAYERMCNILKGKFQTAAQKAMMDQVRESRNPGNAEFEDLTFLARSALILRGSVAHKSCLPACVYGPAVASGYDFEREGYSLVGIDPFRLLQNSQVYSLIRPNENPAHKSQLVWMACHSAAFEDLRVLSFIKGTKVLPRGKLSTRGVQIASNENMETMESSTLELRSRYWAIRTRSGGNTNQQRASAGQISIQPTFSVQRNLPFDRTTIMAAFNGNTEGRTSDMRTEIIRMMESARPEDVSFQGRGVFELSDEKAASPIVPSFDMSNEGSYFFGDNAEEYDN
UniProt Q9NX58, residues 1-167: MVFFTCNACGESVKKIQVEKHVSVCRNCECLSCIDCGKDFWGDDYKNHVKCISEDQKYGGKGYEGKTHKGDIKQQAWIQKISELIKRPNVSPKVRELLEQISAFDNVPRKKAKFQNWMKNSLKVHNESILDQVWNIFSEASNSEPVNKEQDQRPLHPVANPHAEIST

B1: PLSCR1 (Flag-tagged, detected with anti-Flag) (protein, UniProt O15162 1-318)
chain: MDKQNSQMNASHPETNLPVGYPPQYPPTAFQGPPGYSGYPGPQVSYPPPPAGHSGPGPAGFPVPNQPVYNQPVYNQPVGAAGVPWMPAPQPPLNCPPGLEYLSQIDQILIHQQIELLEVLTGFETNNKYEIKNSFGQRVYFAAEDTDCCTRNCCGPSRPFTLRIIDNMGQEVITLERPLRCSSCCCPCCLQEIEIQAPPGVPIGYVIQTWHPCLPKFTIQNEKREDVLKISGPCVVCSCCGDVDFEIKSLDEQCVVGKISKHWTGILREAFTDADNFGIQFPLDLDVKMKAVMIGACFLIDFMFFESTGSQEQKSGVW

Legend:
[1] = molecular target: HA-NP (HA-tagged nucleoprotein of A/Puerto Rico/8/1934 H1N1) (influenza A virus A/Puerto Rico/8/1934 (PR8, H1N1)) (UniProt P03466); experiment: co-IP
[2] = molecular target: HA-NP (HA-tagged nucleoprotein of A/Puerto Rico/8/1934 H1N1) (influenza A virus A/Puerto Rico/8/1934 (PR8, H1N1)) (UniProt P03466); experiment: co-IP; remark: listed apart in the source

| Molecule | binding [1] | binding [2] |
| --- | --- | --- |
| Flag-LYAR N-terminal domain (NTD; amino acids 1 to 167) (from UniProt Q9NX58 1-167) (domain or fragment) | no binding | – |
| B1 | – | binds |
